Results are given in words; binding and its absence hold for the method and conditions named. Binding seen in cells or lysates may run through a third protein. Some results given as binding are weak or reduced against the parent protein; the word gives no strength. Tags and fused reporters may be left off the sequences shown.
B1: myc-tagged Mtr10 (protein, UniProt Q99189 1-972)
chain: MDNLQVSDIETALQCISSTASQDDKNKALQFLEQFQRSTVAWSICNEILSKEDPTNALLELNIFAAQTLRNKVTYDLSQLENNLPQFKDSLLTLLLSHNQKLIITQLNVALARLAIQFLEWQNPIFEIISLLNSSPSILLNFLRILPEETLDIASTSLTEVEFNSRIHELIDPIAEDVLKFLVSCIDLLQNTDGNSSSSISLEQILRCLNSWSYEFPVEQLLTVQPLINLVFETISNGNESDMEAFDSAIDCLCVILRESRDTTNEQLISALFHQLMLLQEKLLPTLFTDHPLNDEYDDDLLEGMTRLFVEAGEAWSVVISKNPDFFKPMVLVLLMLTCKNEDLDVVSYTFPFWFNFKQSLVLPRYQESRKAYSDIFVKLINGIITHLQYPSGQFSSKEEEDKFKDFRYHMGDVLKDCTAVVGTSEALSQPLIRIKSAIENNNSWQIMEAPLFSLRTMAKEISLTENTILPEIIKIICNLPEQAKIRYASTLVLGRYTEWTAKHPELLEVQLQYIFNGFQLHEGSSDMQSIITASSHALMFFCSDCSKLLVGYIDQLINFFLNVQSSIDIESQFELCQGLSAVINNQPEAKVSVIFQKLVDDNLRQIEALIPQWKANPTLLAPQIADKIDLLYALFEELKPRYNYPQQGSEPLLPRIEFIWKALRTLLVDAGAMTDSIIVERVAKLLRRIFERFHVFCEPILPSVAEFLIQGYLTTGFGSYLWCSGSLIVIFGDDESFPISPSLKDAVWKFALSQCETFILNFNKFDKLQLNDYHEAIIDFFSLISDLIMFYPGAFLNSTELLGPVLNVALECVNKLDNYDAYICILRCLDDIISWGFKTPPISTVSIEIVPDEWRKQVINEVVIAHGNQLILVLFIGLVTTFENTAHSDAISCIVKCLRILTEANNNDATICIDWIYKVVEQLGQVTLNERDNLAKAVVEGLNSKDYRKVREGIRAFVGWYSRKNINSRFE
B2: Yku70 (protein, UniProt P32807 1-602)
chain: MRSVTNAFGNSGELNDQVDETGYRKFDIHEGILFCIELSETMFKESSDLEYKSPLLEILESLDELMSQLVITRPGTAIGCYFYYCNREDAKEGIYELFPLRDINATFMKKLNDLLEDLSSGRISLYDYFMFQQTGSEKQVRLSVLFTFMLDTFLEEIPGQKQLSNKRVFLFTDIDKPQEAQDIDERARLRRLTIDLFDNKVNFATFFIGYADKPFDNEFYSDILQLGSHTNENTGLDSEFDGPSTKPIDAKYIKSRILRKKEVKRIMFQCPLILDEKTNFIVGVKGYTMYTHEKAGVRYKLVYEHEDIRQEAYSKRKFLNPITGEDVTGKTVKVYPYGDLDINLSDSQDQIVMEAYTQKDAFLKIIGFRSSSKSIHYFNNIDKSSFIVPDEAKYEGSIRTLASLLKILRKKDKIAILWGKLKSNSHPSLYTLSPSSVKDYNEGFYLYRVPFLDEIRKFPSLLSYDDGSEHKLDYDNMKKVTQSIMGYFNLRDGYNPSDFKNPLLQKHYKVLHDYLLQIETTFDENETPNTKKDRMMREDDSLRKLYYIRNKILESEKSEDPIIQRLNKYVKIWNMFYKKFNDDNISIKEEKKPFDKKPKFNI

What was measured:
Experiment in all cases: co-IP
[1] = target: T1, GFP-tagged Est1 (S. cerevisiae) (UniProt P17214)
T1 sequence: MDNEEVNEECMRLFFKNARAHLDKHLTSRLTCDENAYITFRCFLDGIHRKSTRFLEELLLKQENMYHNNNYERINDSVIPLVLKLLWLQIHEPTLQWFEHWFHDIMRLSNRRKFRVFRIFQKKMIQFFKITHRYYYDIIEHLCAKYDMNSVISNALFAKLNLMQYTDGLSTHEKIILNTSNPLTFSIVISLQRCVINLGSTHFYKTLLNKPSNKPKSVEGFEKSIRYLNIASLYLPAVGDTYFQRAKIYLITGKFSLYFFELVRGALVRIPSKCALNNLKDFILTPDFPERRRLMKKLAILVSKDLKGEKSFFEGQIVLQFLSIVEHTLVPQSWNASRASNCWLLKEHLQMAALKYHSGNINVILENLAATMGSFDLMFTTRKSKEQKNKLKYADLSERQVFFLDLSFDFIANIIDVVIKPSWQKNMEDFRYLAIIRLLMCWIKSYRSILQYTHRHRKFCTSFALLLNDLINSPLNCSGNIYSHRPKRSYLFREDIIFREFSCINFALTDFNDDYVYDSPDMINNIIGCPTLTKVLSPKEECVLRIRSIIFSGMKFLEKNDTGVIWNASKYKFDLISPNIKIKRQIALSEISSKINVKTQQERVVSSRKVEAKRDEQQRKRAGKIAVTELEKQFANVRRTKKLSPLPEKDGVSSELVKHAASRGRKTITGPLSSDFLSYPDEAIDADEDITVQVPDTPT

[2] = target: T2, GFP-tagged Pop1 (S. cerevisiae) (UniProt P41812)
T2 sequence: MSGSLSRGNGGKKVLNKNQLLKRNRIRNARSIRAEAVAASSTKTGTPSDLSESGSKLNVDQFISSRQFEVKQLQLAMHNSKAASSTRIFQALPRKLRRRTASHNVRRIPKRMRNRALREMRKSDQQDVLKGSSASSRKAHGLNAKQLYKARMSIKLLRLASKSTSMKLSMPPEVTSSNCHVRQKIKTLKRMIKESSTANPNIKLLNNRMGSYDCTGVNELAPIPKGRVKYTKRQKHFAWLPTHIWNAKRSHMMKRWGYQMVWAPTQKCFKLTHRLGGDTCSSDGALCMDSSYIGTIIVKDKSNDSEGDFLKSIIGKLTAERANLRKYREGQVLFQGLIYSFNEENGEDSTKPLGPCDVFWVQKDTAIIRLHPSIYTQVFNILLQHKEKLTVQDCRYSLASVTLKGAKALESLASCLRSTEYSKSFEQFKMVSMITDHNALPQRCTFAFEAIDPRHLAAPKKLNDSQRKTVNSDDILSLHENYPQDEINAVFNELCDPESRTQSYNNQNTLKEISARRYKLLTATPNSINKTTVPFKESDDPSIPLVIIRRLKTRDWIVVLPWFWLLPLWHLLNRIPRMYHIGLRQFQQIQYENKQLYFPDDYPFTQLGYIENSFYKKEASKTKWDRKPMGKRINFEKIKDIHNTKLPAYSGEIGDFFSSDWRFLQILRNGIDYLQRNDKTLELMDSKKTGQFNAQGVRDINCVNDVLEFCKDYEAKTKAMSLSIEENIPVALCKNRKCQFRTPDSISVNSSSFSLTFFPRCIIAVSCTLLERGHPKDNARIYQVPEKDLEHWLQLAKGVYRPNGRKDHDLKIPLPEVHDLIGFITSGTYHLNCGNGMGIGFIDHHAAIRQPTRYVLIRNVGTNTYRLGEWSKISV

[3] = target: T3, GFP-tagged Smb1 (S. cerevisiae) (UniProt P40018)
T3 sequence: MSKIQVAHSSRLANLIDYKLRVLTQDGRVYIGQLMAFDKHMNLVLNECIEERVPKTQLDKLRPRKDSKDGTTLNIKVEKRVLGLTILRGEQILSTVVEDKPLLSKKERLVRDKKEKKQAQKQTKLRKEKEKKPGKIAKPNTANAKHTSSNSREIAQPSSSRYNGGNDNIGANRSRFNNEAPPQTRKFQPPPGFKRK

[4] = target: T4, myc-tagged Mtr10 (S. cerevisiae) (UniProt Q99189)
T4 sequence: B1 chain

Binder	binding [1]	binding [2]	binding [3]	binding [4]
B1	no binding	no binding	binds	–
B2	–	–	–	no binding

Source: doi:10.1101/2021.04.30.442090
